# Experimental data: the supplement of paper PMC6411743
# The chains behind the UniProt entries cited, without tags or fusion partners. Where a name states a change or a piece, a line headed by the entry shows the natural chain unless it says otherwise.
# UniProt Q6NUK4: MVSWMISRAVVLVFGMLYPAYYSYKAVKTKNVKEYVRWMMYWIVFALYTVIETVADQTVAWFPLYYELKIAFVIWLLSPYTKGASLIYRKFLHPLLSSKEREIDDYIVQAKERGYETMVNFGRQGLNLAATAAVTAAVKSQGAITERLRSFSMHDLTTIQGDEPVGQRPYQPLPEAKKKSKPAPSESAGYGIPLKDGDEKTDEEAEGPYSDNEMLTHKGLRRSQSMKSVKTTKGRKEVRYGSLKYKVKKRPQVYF
# UniProt Q658Y4: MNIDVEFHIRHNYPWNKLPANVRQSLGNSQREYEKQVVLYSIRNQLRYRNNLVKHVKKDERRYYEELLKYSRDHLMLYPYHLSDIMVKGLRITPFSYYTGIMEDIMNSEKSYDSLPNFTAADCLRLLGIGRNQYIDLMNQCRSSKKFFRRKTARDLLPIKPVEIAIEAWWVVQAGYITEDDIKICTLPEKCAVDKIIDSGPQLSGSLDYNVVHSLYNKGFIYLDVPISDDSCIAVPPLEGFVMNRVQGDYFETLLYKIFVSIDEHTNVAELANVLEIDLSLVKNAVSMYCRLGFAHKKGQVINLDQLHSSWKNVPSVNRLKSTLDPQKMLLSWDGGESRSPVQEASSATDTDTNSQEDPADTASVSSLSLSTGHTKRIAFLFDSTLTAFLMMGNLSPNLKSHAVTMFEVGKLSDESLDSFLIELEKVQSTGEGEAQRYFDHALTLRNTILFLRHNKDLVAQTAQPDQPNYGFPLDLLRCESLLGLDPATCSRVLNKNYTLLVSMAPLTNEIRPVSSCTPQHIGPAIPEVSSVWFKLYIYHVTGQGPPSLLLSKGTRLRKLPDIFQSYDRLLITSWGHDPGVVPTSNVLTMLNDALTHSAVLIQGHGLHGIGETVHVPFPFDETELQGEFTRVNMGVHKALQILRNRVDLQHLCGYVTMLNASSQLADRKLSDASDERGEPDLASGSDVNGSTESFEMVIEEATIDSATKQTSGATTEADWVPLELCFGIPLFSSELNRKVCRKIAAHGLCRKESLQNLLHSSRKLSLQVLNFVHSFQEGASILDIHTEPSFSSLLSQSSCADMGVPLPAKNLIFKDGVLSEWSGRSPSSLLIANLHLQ
# UniProt Q6PIJ6: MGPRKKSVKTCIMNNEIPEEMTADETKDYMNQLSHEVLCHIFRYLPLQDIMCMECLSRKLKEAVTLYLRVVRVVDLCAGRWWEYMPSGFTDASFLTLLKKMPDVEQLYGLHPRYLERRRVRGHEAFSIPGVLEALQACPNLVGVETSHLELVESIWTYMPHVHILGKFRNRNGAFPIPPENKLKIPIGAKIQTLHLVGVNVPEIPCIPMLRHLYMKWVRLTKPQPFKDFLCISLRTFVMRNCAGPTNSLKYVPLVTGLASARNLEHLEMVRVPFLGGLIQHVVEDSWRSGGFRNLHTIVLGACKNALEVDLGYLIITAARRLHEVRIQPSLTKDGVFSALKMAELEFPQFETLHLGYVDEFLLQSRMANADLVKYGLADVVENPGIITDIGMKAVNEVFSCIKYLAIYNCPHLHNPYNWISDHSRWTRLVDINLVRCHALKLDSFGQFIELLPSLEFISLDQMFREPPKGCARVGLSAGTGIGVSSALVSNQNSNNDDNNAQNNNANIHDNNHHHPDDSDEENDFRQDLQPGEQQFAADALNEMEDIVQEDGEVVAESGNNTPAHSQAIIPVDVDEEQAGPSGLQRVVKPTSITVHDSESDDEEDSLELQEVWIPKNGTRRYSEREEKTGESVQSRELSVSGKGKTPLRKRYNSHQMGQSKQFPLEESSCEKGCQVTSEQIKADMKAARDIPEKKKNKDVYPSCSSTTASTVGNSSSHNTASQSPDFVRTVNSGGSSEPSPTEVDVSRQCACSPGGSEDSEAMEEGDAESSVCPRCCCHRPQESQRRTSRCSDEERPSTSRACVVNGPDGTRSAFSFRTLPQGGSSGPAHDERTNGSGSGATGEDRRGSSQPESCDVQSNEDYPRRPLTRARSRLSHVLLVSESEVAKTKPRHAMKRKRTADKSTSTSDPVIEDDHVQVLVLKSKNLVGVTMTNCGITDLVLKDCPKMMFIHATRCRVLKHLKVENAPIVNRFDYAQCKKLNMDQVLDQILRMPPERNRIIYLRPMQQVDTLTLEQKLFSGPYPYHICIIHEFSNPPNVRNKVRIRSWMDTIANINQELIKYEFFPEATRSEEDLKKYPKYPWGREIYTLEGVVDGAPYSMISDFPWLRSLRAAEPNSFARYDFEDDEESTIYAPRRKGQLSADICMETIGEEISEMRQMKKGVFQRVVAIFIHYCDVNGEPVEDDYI
# UniProt Q86U70: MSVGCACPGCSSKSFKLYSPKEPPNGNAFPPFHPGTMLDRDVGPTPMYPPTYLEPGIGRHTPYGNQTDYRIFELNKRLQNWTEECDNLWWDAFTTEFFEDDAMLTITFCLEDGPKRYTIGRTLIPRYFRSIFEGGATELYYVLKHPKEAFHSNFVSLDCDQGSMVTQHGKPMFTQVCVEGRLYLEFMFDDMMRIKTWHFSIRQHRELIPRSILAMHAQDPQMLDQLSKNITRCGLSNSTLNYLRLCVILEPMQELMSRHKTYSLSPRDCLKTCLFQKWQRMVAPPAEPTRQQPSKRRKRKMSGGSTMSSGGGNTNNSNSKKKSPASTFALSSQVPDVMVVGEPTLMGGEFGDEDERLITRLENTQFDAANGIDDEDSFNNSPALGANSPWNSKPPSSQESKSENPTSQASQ
# UniProt Q6WKZ4: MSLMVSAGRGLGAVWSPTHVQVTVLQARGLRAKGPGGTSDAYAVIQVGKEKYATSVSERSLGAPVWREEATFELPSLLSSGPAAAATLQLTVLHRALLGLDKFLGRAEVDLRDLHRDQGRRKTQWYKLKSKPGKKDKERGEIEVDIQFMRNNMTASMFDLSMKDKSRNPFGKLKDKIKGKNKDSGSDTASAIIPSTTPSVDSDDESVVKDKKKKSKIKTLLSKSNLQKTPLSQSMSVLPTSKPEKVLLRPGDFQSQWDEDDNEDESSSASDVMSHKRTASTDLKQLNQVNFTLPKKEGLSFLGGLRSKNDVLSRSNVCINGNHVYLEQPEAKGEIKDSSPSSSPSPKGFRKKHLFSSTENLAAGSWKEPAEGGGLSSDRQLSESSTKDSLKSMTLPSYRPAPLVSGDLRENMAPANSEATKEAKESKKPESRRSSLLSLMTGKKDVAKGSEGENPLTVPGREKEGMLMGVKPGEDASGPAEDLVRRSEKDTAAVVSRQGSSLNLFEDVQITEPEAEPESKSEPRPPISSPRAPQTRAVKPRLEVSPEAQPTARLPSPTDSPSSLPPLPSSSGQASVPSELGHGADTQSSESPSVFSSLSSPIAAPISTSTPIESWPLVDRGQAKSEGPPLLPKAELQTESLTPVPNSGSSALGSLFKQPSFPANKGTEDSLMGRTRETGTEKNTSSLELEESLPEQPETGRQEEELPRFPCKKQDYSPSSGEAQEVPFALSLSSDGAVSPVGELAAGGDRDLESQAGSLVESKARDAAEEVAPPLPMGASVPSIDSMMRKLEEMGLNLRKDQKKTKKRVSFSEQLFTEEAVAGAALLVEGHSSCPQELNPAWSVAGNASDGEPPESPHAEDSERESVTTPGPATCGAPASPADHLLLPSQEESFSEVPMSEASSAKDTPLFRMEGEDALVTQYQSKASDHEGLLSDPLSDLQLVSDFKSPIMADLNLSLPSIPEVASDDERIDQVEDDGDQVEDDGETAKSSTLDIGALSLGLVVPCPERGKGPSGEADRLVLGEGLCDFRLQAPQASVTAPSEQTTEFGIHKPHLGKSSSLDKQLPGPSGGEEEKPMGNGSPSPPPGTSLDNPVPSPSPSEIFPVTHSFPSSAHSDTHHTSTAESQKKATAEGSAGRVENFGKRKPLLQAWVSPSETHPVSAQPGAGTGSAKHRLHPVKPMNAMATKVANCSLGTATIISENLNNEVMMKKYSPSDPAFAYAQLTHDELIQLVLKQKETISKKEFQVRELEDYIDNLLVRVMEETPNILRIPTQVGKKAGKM
# ± gives the standard deviation of the averaged measurements. The list shows a part of the results.
# Compound: Nc1nc2c(ncn2[C@@H]2O[C@H](COP(=O)(O)OP(=O)(O)OP(=O)(O)O)[C@@H](O)[C@H]2O)c(=O)[nH]1 [guanosine triphosphate]
# Assay: NP40-soluble protein abundance relative to vehicle (solubility fold change) (ratio); higher = more soluble protein in presence of GTP
# Experimental: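 Solubility proteome profiling in Jurkat crude lysate. Lysate was treated with Mg-GTP (0.1-10 mM) for 10 min at room temperature and 3 min at 37 °C, then solubilised with 0.8% NP40 and benzonase, followed by ultracentrifugation. Proteins were quantified by TMT10 LC-MS/MS; the value is the NP40-soluble abundance relative to the NP40-processed vehicle, from 3 independent experiments.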
Target,NP40-soluble protein abundance (concentration: 0.1mM),NP40-soluble protein abundance (concentration: 0.5mM),NP40-soluble protein abundance (concentration: 1mM),NP40-soluble protein abundance (concentration: 2mM),NP40-soluble protein abundance (concentration: 4mM),NP40-soluble protein abundance (concentration: 6mM),NP40-soluble protein abundance (concentration: 8mM),NP40-soluble protein abundance (concentration: 10mM)
REEP3 (UniProt Q6NUK4),0.931 ± 0.049,1.08 ± 0.078,1.092 ± 0.0091,1.03 ± 0.025,1.02 ± 0.029,1.03 ± 0.059,1.1 ± 0.091,1.03 ± 0.029
UniProt Q658Y4 and related entries,1.13 ± 0.12,1.1 ± 0.13,1 ± 0.042,1.07 ± 0.16,1.06 ± 0.13,1.04 ± 0.13,1.05 ± 0.089,1.01 ± 0.1
FBXO38 (UniProt Q6PIJ6),1.07 ± 0.038,1.09 ± 0.04,1.09 ± 0.053,1.1 ± 0.056,1.09 ± 0.028,1.08 ± 0.055,1.14 ± 0.11,1.11 ± 0.097
LDB1 (UniProt Q86U70),1.066 ± 0.0088,1.04 ± 0.05,1 ± 0.056,0.989 ± 0.024,0.938 ± 0.043,0.951 ± 0.021,0.968 ± 0.047,0.931 ± 0.036
UniProt Q6WKZ4 and related entries,1.02 ± 0.049,0.951 ± 0.044,0.946 ± 0.05,0.921 ± 0.056,0.933 ± 0.058,0.901 ± 0.022,0.943 ± 0.057,0.89 ± 0.038
